From patent US20240398841A1, “BLADDER PERFUSION PHARMACEUTICAL COMPOSITION, PREPARATION METHOD THEREFOR AND APPLICATION THEREOF” (priority 2020, published 2024)
Where a name gives a salt, the structure may show the parent alone. At least one compound was matched to its structure with a doubt left. Some entries share one result that the patent states for a list of compounds.

Experiments:
[1] = test system: non-muscular invasive bladder cancer; settings: high-risk NMIBC patients, within one year after bladder perfusion treatment; cited from earlier work
[2] = Chemical stability of epirubicin/imiquimod injection at different pH, 40° C., liquid chromatography (Example D1); assay type: physicochemical; settings: day 0

| SMILES | tumor recurrence rate [1] | EPI-A impurity content [2] | EPI-C impurity content [2] | Total impurity of epirubicin [2] | Unknown single impurity of epirubicin [2] |
| --- | --- | --- | --- | --- | --- |
| COc1cccc2c1C(=O)c1c(O)c3c(c(O)c1C2=O)C[C@@](O)(C(=O)CO)C[C@@H]3O[C@H]1C[C@H](N)[C@@H](O)[C@H](C)O1 [EPI, epirubicin hydrochloride] | more than 50% | 0.18% | 0.21% | 0.71% | 0.09% |
| COc1cccc2c1C(=O)c1c(O)c3c(c(O)c1C2=O)C[C@@](O)(C(=O)CO)C[C@@H]3O[C@H]1C[C@H](N)[C@H](O[C@@H]2CCCCO2)[C@H](C)O1 [THP, pirarubicin hydrochloride] | more than 50% |  |  |  |  |
